Test results from paper PMC4599652.
No constants are given. Whether binding was seen depends on the method and setting. Binding seen in cells or lysates may run through a third protein. Some entries that bind do so weakly or less than the wild type.

By UniProt entry, the sequences of proteins in these tests, tags left out. Residues count along the entry.
UniProt O55242: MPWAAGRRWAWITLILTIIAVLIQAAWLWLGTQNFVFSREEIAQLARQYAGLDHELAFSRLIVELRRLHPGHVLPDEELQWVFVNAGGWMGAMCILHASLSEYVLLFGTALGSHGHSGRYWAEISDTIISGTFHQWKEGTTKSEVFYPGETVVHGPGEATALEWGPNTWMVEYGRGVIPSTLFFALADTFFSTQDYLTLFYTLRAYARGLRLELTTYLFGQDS
UniProt Q01097, residues 27-1482: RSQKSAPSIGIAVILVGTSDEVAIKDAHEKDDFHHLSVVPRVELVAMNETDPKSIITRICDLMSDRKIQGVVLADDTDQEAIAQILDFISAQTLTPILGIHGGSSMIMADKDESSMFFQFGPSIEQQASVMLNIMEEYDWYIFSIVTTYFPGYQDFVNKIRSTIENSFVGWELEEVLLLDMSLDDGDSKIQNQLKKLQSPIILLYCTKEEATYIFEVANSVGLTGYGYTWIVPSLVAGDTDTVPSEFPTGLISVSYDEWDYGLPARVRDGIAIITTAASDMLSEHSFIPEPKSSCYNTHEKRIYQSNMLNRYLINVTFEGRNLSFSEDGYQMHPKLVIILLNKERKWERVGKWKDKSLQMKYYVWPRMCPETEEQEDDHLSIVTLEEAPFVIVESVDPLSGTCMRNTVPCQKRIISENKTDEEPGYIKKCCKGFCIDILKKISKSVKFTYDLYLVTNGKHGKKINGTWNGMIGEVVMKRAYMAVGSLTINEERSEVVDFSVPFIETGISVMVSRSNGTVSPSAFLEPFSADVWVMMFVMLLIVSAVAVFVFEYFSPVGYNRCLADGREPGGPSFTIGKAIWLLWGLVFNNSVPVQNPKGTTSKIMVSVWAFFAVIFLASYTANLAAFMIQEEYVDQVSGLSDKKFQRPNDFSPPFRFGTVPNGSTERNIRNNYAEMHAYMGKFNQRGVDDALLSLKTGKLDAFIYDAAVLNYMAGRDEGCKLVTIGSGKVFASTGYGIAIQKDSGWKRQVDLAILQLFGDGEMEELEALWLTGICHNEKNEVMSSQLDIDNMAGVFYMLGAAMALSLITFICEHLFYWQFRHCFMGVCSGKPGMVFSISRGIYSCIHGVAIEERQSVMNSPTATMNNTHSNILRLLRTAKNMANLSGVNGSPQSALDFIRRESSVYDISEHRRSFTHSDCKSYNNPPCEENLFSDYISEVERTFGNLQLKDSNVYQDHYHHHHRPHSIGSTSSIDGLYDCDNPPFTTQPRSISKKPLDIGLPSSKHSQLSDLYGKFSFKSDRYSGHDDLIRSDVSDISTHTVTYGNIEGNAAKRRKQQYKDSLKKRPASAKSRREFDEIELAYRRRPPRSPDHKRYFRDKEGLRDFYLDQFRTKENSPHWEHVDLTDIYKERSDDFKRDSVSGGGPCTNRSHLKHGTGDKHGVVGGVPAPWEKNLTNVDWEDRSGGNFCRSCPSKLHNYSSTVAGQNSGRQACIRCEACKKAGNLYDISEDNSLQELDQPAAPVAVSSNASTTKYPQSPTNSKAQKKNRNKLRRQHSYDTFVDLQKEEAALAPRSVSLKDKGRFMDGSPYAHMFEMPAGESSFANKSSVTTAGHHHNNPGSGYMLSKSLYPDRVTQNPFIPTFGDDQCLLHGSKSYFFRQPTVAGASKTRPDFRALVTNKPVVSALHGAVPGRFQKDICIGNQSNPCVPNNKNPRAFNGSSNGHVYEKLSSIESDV
UniProt P20029, residues 20-655: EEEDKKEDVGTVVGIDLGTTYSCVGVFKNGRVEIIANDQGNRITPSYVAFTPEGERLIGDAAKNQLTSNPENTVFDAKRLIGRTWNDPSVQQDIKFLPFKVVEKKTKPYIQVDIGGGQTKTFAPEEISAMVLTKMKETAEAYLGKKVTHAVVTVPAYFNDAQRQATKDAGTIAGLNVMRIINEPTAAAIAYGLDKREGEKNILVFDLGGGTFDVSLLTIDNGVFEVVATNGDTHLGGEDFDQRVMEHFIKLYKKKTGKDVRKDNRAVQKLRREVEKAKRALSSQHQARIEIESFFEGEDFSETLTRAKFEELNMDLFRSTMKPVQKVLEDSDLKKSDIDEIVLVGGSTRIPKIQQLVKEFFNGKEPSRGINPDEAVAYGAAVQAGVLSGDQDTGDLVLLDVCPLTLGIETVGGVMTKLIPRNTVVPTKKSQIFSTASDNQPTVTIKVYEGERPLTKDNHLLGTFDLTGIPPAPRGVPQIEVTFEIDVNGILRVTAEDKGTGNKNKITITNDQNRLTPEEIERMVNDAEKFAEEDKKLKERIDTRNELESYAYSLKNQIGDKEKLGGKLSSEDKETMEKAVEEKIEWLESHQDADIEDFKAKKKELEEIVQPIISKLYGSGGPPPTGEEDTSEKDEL

Biological target: sigma receptor-1 (mouse (endogenous in brain cortex)) (UniProt O55242)
Experiment: co-IP; solubilized brain cortex membrane fractions of wild-type and IL-10 knockout mice (20 mM Tris-HCl pH 8.0, 137 mM NaCl, 10 % glycerol, 1 % Triton X-100, 2 mM EDTA); anti-SigR1 antibody and Protein A/G-agarose overnight at 4 °C; eluate analysed by Western blotting

| binding | Substance |
| --- | --- |
| binds | NR2B subunit of NMDA-receptor (from UniProt Q01097 27-1482) |
| binds | immunoglobulin binding protein (from UniProt P20029 20-655) |
